Source: US8466110B2, “Use of an agent that restores tissue perfusion and oxygenation” (Duke University, priority 2005, dated 2013)

Test system: baroreceptor and peripheral vasculature
Assay: Summary of bioactivity of cell-free SNO-Hb and oxy-Hb (Table 3)
Type: in vivo, rat

Substance	NO-related chemical fate (vascular pO2 at injection site high)	NO-related chemical fate (vascular pO2 at injection site low)	NO-related chemical fate (vascular pO2 at injection site any)
S-nitrosohemoglobin [SNO-Hb]	SNO-Hb	Met-Hb + iron-nitrosyl Hb	
oxyhemoglobin [oxy-Hb, reference compound]			Met-Hb +
